# Source: PubChem BioAssay AID720505 (Drosophila RNAi Screening Center, 2013)
# Aim: 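Genes needed for store-operated calcium entry in fly cells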 (primary screen)
# System: Drosophila S2R+ cells
# Reagents: long dsRNA against Drosophila genes
# Treatment: thapsigargin (2 µM) in calcium-free buffer to empty internal stores, then 2 mM calcium added back
# Measured: 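Fluo-4 signal in 384-well plates read on a FLIPR after thapsigargin (2 µM, calcium-free) store depletion and 2 mM calcium add-back; unnormalised mean endpoint per well; screen run twice, selected wells retested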
# Scale: calcium signal and retest calcium signal: higher = more calcium entry after store depletion
# Hit rule: 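About 1500 genes called as lowering calcium entry, by varying amounts, judged against per-plate control wells with STIM1 as positive and Rho1 as negative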
# Calls: active = called as lowering calcium entry; inactive = not called
# The screen tested about 20,000 reagents; below is an unselected part of those that have a named target and a result. Of all reagents, about 2,100 (10%) got an active call. 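Raw plate signals without normalisation; calls rest on control-based scores that were not deposited; replicate 2 separates called from uncalled poorly.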 Entries without a mark were called inactive. Names joined by + are all predicted targets of the reagent. Reagent sequences are not shown. The record does not give: the amount of reagent, the time to read-out.
Gene,dsRNA,"calcium signal, replicate 1","calcium signal, replicate 2","retest calcium signal, replicate 1","retest calcium signal, replicate 2"
nAChRalpha7 (nicotinic Acetylcholine Receptor alpha7),DRSC20078,181,82.5,,
nAChRalpha7 (nicotinic Acetylcholine Receptor alpha7),DRSC20081,147,80.6,,
S-Lap4 (Sperm-Leucylaminopeptidase 4),DRSC10957,94.5,115,,
crok (crooked),DRSC02593,100,164,,
crok (crooked),DRSC21349,140,87.3,,
CG11200,DRSC06060,148,80.4,,
CG3735,DRSC04411,132,91.2,,
BORCS7 + CG13430,DRSC06392,145,124,,
BORCS7 + CG13430,DRSC06707,81.3,107,,
CG43397 + CG12902,DRSC06217,124,125,,
Cpr92A (Cuticular protein 92A),DRSC16000,176,141,,
CG10737,DRSC05999,159,108,,
CG2145,DRSC19835,101,66.2,,
"TrpRS-m (Tryptophanyl-tRNA synthetase, mitochondrial)",DRSC10848,103,102,,
CG4928,DRSC19342,150,129,,
yellow-g,DRSC08575,61,95.2,,
CG32512,DRSC20519,173,94.6,6442,140
CG32512,DRSC20551,154,105,,
CG32512,DRSC21401,180,95.9,,
CG33271,DRSC10583,117,95.2,,
Cht11 (Chitinase 11),DRSC18270,205,145,,
CG13793,DRSC02297,122,95.3,,
CG18545,DRSC15343,161,126,,
wkd (whacked),DRSC15777,182,113,,
Spt-I (Serine palmitoyltransferase subunit I),DRSC06860,99.7,124,,
fz3 (frizzled 3),DRSC18779,72.4,99.6,,
Vago,DRSC19833,112,125,,
Cdk8 (Cyclin-dependent kinase 8),DRSC11113,108,76.8,,
Ir54a + sub,DRSC06459,168,155,,
CG15260,DRSC01977,111,97.4,,
Mocs1 (Molybdenum cofactor synthesis 1),DRSC11225,101,132,,
CG11191,DRSC06056,171,143,,
CG11191,DRSC23224,124,130,,
Tbp (TATA binding protein),DRSC04662,178,133,,
Tbp (TATA binding protein),DRSC23111,129,146,,
Acbp3 (Acyl-CoA binding protein 3),DRSC11022,71.8,66.3,,
arm (armadillo),DRSC18738,88.7,106,,
CG11373,DRSC12170,139,179,,
"SmydA-4 (SET and MYND domain containing, arthropod-specific, member 4)",DRSC19390,135,111,5778,113
"SmydA-4 (SET and MYND domain containing, arthropod-specific, member 4)",DRSC21866,76.1,179,,
CG14647,DRSC12233,135,76.5,,
CG14647,DRSC22497,95,168,,
Lrr47 (Leucine-rich repeat 47),DRSC03365,66.1 (active),91.9,,
sdk (sidekick),DRSC18831,114,197,,
MED16 (Mediator complex subunit 16),DRSC04506,44.6,150,,
mei-S332 (meiotic from via Salaria 332),DRSC04704,108,95.2,,
CG31793,DRSC02605,128,115,,
CG7950 + Rpp14a,DRSC16353,97.5,180,,
ifc (infertile crescent),DRSC03549,105,217,,
CG31099,DRSC14252,267,123,,
ms(2)35Ci (male sterile (2) 35Ci),DRSC01460,137,117,,
Obp57c (Odorant-binding protein 57c),DRSC06384,124,83.7,,
CG3014,DRSC15458,116,154,,
CG30075,DRSC05484,110,85.5,,
Ino80 (INO80 complex subunit),DRSC14760,237,107,,
Ino80 (INO80 complex subunit),DRSC15333,252,150,,
Ino80 (INO80 complex subunit),DRSC15501,250,110,,
simj (simjang),DRSC10942,103,98.2,,
AttC (Attacin-C),DRSC06886,178,179,,
CG13223,DRSC06344,81.6,147,,
RpS4 (Ribosomal protein S4),DRSC11272,49.2 (active),76.2,,
alphaCOP (Coat Protein (coatomer) alpha),DRSC08706,71.8 (active),112,,
spt4,DRSC07696,148,161,,
CG14803,DRSC18556,74.8,114,,
CG10286,DRSC12520,117,147,,
CG33919,DRSC04940,124,126,,
CG14715,DRSC14938,124,131,,
bark (bark beetle),DRSC00635,72.8 (active),116,,
CG5693,DRSC02878,138,133,,
CG32263,DRSC22431,82.4,147,,
bc10,DRSC11326,95.5,76.9,,
CG8607,DRSC11012,89.7,68.6,,
Cpr72Ea (Cuticular protein 72Ea),DRSC10451,110,94,,
Usp7 (Ubiquitin-specific protease 7),DRSC19604,101,107,,
LysD + LysB + LysC (retired record),DRSC21249,70.8 (active),193,,
MED23 + CG3700,DRSC04406,120,253,,
MED23 + CG3700,DRSC04407,143,89.3,,
stol (stolid),DRSC01956,110,169,,
mura (murashka),DRSC16483,135,90,,
mura (murashka),DRSC16484,71.3 (active),85,,
mura (murashka),DRSC23145,128,183,,
CG14744,DRSC06480,110,135,,
Rcd6 (Reduction in Cnn dots 6),DRSC06054,175,87.3,,

7 entries from above, ordered by “calcium signal, replicate 2”, descending:
Gene,dsRNA,"calcium signal, replicate 1","calcium signal, replicate 2","retest calcium signal, replicate 1","retest calcium signal, replicate 2"
CG4928,DRSC19342,150,129,,
CG10737,DRSC05999,159,108,,
CG32512,DRSC20551,154,105,,
"TrpRS-m (Tryptophanyl-tRNA synthetase, mitochondrial)",DRSC10848,103,102,,
yellow-g,DRSC08575,61,95.2,,
CG32512,DRSC20519,173,94.6,6442,140
CG2145,DRSC19835,101,66.2,,
